Measurements from PMC8143632.
Results are given in words; binding and its absence hold for the method and conditions named. Binding seen in cells or lysates may run through a third protein. Here binding means that the protein was enriched with, or labelled near, the bait; the list need not be complete. For some of these results: A no says only that the protein was not detected with the bait. For some of these results: Tags and fused reporters may be left off the sequences shown.

Legend:
Test in all cases: affinity purification with mass spectrometry; Halo-tagged bait stably expressed in Flp-In-293 cells; lysate with HL-SAN nuclease 2 U/ml for 2 h at 4 °C; bait captured on Magne HaloTag Beads, eluted with AcTEV Protease; MudPIT; enrichment over cells without transgene by QSPEC (Z-statistic >= 3 and log2 fold change >= 2)
[1] = biological target: Halo-tagged PHF12 (human), Q96QT6; settings: remark: other sources report otherwise
[2] = biological target: Halo-tagged MORF4L1 (human), Q9UBU8; settings: remark: other sources report otherwise
[3] = biological target: T1, SIN3A-HaloTag (human), Q96ST3; settings: remark: other sources report otherwise
T1 chain: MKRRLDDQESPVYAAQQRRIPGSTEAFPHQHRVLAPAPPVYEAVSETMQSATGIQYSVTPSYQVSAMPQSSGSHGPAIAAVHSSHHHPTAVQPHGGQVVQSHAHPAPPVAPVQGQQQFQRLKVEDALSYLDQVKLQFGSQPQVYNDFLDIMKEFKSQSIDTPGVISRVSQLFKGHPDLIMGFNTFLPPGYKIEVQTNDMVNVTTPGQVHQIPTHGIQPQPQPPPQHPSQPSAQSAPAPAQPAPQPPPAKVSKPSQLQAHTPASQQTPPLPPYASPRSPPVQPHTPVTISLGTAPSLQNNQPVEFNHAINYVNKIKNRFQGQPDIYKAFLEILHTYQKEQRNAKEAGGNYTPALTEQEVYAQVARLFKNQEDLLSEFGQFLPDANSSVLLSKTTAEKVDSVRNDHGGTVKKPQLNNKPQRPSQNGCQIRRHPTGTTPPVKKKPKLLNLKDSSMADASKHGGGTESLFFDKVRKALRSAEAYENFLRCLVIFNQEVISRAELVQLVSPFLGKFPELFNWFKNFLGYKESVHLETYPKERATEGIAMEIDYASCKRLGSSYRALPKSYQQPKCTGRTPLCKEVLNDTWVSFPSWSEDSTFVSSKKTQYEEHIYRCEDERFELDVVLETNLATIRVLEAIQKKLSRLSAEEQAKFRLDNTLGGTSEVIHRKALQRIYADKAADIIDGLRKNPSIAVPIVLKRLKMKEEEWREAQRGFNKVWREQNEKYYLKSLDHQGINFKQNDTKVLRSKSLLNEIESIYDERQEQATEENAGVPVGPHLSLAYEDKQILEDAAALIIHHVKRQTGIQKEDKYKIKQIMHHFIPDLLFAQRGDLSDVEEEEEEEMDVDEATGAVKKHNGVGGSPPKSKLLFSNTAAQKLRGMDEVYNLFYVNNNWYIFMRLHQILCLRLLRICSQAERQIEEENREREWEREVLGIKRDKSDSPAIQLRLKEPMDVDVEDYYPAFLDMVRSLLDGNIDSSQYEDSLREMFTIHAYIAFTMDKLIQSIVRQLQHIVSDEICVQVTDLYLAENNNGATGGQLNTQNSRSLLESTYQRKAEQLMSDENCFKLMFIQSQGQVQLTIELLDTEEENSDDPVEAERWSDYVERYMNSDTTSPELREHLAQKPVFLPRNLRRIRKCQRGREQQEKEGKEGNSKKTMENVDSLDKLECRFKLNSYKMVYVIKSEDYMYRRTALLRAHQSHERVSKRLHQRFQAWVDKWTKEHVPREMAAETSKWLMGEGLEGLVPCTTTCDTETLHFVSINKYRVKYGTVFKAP

[4] = biological target: Halo-tagged PHF12 (human) (UniProt Q96QT6)
[5] = biological target: T2, Halo-tagged GATAD1 (human) (UniProt Q8WUU5)
T2 sequence: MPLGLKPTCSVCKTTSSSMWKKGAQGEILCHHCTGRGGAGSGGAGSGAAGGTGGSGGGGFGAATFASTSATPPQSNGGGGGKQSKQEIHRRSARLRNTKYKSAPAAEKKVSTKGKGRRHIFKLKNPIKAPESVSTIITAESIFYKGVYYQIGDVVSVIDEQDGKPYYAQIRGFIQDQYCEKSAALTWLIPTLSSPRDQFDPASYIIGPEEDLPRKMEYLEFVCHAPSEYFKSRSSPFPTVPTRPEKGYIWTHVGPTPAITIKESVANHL

SIN3A-HaloTag (human) = biological target: T3, SIN3A-HaloTag (human) (UniProt Q96ST3)
T3 sequence: T1 chain

B1: SIN3A (native, untagged), Q96ST3 1-1273 (protein)
chain: T1 chain
Q: Which results are given for B1?
A: binding [1]: no binding; binding [2]: no binding; binding [3]: binds

B2: EMSY (protein, UniProt Q7Z589 1-1322)
chain: MPVVWPTLLDLSRDECKRILRKLELEAYAGVISALRAQGDLTKEKKDLLGELSKVLSISTERHRAEVRRAVNDERLTTIAHNMSGPNSSSEWSIEGRRLVPLMPRLVPQTAFTVTANAVANAAIQHNASLPVPAETGSKEVVCYSYTSTTSTPTSTPVPSGSIATVKSPRPASPASNVVVLPSGSTVYVKSVSCSDEDEKPRKRRRTNSSSSSPVVLKEVPKAVVPVSKTITVPVSGSPKMSNIMQSIANSLPPHMSPVKITFTKPSTQTTNTTTQKVIIVTTSPSSTFVPNILSKSHNYAAVTKLVPTSVIASTTQKPPVVITASQSSLVSNSSSGSSSSTPSPIPNTVAVTAVVSSTPSVVMSTVAQGVSTSAIKMASTRLPSPKSLVSAPTQILAQFPKQHQQSPKQQLYQVQQQTQQQVAQPSPVSHQQQPQQSPLPPGIKPTIQIKQESGVKIITQQVQPSKILPKPVTATLPTSSNSPIMVVSSNGAIMTTKLVTTPTGTQATYTRPTVSPSIGRMAATPGAATYVKTTSGSIITVVPKSLATLGGKIISSNIVSGTTTKITTIPMTSKPNVIVVQKTTGKGTTIQGLPGKNVVTTLLNAGGEKTIQTVPTGAKPAILTATRPITKMIVTQPKGIGSTVQPAAKIIPTKIVYGQQGKTQVLIKPKPVTFQATVVSEQTRQLVTETLQQASRVAEAGNSSIQEGKEEPQNYTDSSSSSTESSQSSQDSQPVVHVIASRRQDWSEHEIAMETSPTIIYQDVSSESQSATSTIKALLELQQTTVKEKLESKPRQPTIDLSQMAVPIQMTQEKRHSPESPSIAVVESELVAEYITTERTDEGTEVAFPLLVSHRSQPQQPSQPQRTLLQHVAQSQTATQTSVVVKSIPASSPGAITHIMQQALSSHTAFTKHSEELGTEEGEVEEMDTLDPQTGLFYRSALTQSQSAKQQKLSQPPLEQTQLQVKTLQCFQTKQKQTIHLQADQLQHKLPQMPQLSIRHQKLTPLQQEQAQPKPDVQHTQHPMVAKDRQLPTLMAQPPQTVVQVLAVKTTQQLPKLQQAPNQPKIYVQPQTPQSQMSLPASSEKQTASQVEQPIITQGSSVTKITFEGRQPPTVTKITGGSSVPKLTSPVTSISPIQASEKTAVSDILKMSLMEAQIDTNVEHMIVDPPKKALATSMLTGEAGSLPSTHMVVAGMANSTPQQQKCRESCSSPSTVGSSLTTRKIDPPAVPATGQFMRIQNVGQKKAEESPAEIIIQAIPQYAIPCHSSSNVVVEPSGLLELNNFTSQQLDDEETAMEQDIDSSTEDGTEPSPSQSSAERS
Q: B2 was tested. Which binding [4] did it give?
A: The binding was “binds”.

Q: What about the binding [5] of the same binder?
A: The binding was “binds”.

Q: What about the binding (SIN3A-HaloTag (human)) of the same binder?
A: The binding was “no binding”.

B3: PHF12, Q96QT6 1-1004 (protein)
chain: MWEKMETKTIVYDLDTSGGLMEQIQALLAPPKTDEAEKRSRKPEKEPRRSGRATNHDSCDSCKEGGDLLCCDHCPAAFHLQCCNPPLSEEMLPPGEWMCHRCTVRRKKREQKKELGHVNGLVDKSGKRTTSPSSDTDLLDRSASKTELKAIAHARILERRASRPGTPTSSASTETPTSEQNDVDEDIIDVDEEPVAAEPDYVQPQLRRPFELLIAAAMERNPTQFQLPNELTCTTALPGSSKRRRKEETTGKNVKKTQHELDHNGLVPLPVKVCFTCNRSCRVAPLIQCDYCPLLFHMDCLEPPLTAMPLGRWMCPNHIEHVVLNQKNMTLSNRCQVFDRFQDTVSQHVVKVDFLNRIHKKHPPNRRVLQSVKRRSLKVPDAIKSQYQFPPPLIAPAAIRDGELICNGIPEESQMHLLNSEHLATQAEQQEWLCSVVALQCSILKHLSAKQMPSHWDSEQTEKADIKPVIVTDSSVTTSLQTADKTPTPSHYPLSCPSGISTQNSLSCSPPHQSPALEDIGCSSCAEKSKKTPCGTANGPVNTEVKANGPHLYSSPTDSTDPRRLPGANTPLPGLSHRQGWPRPLTPPAAGGLQNHTVGIIVKTENATGPSSCPQRSLVPVPSLPPSIPSSCASIENTSTLQRKTVQSQIGPPLTDSRPLGSPPNATRVLTPPQAAGDGILATTANQRFSSPAPSSDGKVSPGTLSIGSALTVPSFPANSTAMVDLTNSLRAFMDVNGEIEINMLDEKLIKFLALQRIHQLFPSRVQPSPGSVGTHQLASGGHHIEVQRKEVQARAVFYPLLGLGGAVNMCYRTLYIGTGADMDVCLTNYGHCNYVSGKHACIFYDENTKHYELLNYSEHGTTVDNVLYSCDFSEKTPPTPPSSIVAKVQSVIRRRRHQKQDEEPSEEAAMMSSQAQGPQRRPCNCKASSSSLIGGSGAGWEGTALLHHGSYIKLGCLQFVFSITEFATKQPKGDASLLQDGVLAEKLSLKPHQGPVLRSNSVP
Q: Which binding [3] does the source give for B3 here?
A: Its binding is “no binding”.
